Measurements reported in the supplement of paper PMC12823440, “Inhibitors supercharge kinase turnover through native proteolytic circuits” (Nature, 2025).
Where a name gives a salt, the structure may show the parent alone. The list shows a part of the results. Hit calls seldom repeat between salt and free forms of one compound.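 Kinases were expressed as nanoluciferase fusions in K562 cells and luminescence was read every 4 h between 2 and 18 h as percent of control, DMSO set to 100% and a positive control to 0%. A time point counts as decreased when the signal drops significantly (2 sigma). The hit call is the authors' own, does not follow from the count of time points alone, and its rule is not shown.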

Amino acid sequences for entries named in this document (tags omitted). A change or cut given only in a name is not applied to a line headed by its entry.
UniProt O15530: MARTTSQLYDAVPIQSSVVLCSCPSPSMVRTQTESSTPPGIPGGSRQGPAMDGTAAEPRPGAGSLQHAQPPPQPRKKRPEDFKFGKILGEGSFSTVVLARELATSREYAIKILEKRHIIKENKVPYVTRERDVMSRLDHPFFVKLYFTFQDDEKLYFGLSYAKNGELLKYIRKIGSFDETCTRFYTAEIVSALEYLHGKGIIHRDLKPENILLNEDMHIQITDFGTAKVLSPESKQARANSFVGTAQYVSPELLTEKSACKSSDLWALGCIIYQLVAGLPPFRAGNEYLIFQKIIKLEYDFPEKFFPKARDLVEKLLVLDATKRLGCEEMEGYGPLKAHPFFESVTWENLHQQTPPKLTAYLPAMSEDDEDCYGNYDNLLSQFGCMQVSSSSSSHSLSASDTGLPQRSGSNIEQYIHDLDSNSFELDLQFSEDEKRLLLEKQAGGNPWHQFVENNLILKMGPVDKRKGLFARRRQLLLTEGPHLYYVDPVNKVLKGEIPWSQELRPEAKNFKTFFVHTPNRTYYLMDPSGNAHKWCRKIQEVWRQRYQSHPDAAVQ
UniProt P42356, whole entry, looked up: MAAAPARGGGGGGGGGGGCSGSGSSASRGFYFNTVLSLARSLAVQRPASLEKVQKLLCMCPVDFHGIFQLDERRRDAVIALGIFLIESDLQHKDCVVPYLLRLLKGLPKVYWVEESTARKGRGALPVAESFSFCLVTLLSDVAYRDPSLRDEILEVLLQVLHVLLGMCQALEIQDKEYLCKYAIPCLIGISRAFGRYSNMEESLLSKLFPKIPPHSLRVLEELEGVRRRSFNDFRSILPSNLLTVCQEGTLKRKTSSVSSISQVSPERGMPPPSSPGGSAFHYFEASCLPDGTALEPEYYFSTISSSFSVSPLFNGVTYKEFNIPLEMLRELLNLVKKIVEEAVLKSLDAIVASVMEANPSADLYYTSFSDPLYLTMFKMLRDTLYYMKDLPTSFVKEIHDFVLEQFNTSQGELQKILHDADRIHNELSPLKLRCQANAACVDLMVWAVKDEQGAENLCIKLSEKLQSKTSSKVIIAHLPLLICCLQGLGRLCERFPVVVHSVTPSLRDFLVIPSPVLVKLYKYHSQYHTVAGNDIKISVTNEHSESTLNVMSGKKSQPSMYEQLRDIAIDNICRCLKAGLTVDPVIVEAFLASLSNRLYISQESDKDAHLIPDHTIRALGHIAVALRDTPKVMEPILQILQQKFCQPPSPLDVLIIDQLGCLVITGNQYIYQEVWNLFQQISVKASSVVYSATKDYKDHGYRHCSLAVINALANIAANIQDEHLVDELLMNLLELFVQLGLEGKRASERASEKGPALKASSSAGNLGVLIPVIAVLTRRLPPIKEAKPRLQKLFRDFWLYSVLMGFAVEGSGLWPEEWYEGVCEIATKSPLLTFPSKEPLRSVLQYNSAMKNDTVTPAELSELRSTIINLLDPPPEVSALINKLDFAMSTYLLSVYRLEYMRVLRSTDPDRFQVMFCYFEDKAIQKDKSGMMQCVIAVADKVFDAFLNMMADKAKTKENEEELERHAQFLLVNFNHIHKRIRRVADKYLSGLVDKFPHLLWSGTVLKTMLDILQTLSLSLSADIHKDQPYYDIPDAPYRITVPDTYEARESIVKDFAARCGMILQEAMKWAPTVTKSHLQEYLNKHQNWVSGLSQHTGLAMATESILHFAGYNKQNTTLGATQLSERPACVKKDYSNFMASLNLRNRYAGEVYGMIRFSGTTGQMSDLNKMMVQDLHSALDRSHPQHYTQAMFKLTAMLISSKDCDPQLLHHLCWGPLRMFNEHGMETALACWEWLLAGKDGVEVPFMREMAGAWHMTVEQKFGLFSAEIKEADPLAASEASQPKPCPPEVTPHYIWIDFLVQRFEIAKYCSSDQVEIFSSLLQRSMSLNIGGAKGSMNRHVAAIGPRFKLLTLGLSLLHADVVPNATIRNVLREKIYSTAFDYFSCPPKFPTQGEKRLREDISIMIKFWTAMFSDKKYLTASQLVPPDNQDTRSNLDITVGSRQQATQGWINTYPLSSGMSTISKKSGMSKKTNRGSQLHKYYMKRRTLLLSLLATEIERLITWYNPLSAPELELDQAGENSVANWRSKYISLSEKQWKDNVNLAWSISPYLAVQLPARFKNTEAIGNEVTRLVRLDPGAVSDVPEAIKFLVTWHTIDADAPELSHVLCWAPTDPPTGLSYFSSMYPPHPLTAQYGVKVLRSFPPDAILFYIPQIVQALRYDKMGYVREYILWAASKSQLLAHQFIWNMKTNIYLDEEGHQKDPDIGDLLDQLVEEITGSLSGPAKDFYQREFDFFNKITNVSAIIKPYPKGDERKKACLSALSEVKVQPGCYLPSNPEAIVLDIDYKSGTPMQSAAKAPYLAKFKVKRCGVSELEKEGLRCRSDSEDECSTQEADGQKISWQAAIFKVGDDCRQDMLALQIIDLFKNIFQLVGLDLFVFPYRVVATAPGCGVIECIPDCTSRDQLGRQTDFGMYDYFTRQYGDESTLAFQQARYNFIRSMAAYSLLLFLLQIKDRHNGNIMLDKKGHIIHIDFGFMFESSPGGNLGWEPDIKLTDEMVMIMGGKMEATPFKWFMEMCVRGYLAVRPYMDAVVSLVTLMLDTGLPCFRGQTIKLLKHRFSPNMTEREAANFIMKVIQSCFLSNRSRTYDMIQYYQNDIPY
UniProt Q9UBF8: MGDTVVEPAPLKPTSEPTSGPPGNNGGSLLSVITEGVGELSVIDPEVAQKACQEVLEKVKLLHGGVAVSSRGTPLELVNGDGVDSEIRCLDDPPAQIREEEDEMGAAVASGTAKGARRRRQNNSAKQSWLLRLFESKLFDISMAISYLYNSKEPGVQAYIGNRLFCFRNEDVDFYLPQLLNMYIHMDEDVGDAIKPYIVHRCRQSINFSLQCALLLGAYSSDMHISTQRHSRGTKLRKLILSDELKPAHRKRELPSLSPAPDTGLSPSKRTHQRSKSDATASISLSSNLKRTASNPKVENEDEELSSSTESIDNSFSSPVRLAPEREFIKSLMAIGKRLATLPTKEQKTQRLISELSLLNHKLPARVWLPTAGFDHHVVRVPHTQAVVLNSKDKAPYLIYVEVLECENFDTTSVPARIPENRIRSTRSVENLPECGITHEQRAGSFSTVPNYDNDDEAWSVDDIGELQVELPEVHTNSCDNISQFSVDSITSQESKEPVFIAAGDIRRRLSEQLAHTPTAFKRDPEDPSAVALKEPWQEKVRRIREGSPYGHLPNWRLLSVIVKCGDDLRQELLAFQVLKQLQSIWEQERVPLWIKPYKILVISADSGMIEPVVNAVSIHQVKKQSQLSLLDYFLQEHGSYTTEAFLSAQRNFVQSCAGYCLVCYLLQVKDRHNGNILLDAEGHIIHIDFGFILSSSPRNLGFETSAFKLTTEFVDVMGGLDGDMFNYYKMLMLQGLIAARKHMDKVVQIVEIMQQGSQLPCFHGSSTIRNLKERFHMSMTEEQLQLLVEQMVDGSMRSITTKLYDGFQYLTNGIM
UniProt Q13131: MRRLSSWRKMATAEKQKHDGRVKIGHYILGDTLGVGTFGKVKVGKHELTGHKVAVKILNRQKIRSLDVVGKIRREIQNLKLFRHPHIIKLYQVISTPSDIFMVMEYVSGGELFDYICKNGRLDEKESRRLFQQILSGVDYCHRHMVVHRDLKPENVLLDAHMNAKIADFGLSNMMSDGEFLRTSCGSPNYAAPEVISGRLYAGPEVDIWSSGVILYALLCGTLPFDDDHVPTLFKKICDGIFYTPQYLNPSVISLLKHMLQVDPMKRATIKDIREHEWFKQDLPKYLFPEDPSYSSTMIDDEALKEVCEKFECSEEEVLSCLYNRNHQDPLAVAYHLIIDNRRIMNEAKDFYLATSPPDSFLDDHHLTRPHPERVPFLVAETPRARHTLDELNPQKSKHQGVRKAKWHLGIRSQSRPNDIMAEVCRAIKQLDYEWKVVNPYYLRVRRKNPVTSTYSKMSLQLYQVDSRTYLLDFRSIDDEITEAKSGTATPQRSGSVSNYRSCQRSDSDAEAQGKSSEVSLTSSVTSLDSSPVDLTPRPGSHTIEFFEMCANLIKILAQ
UniProt P07949, whole entry, looked up: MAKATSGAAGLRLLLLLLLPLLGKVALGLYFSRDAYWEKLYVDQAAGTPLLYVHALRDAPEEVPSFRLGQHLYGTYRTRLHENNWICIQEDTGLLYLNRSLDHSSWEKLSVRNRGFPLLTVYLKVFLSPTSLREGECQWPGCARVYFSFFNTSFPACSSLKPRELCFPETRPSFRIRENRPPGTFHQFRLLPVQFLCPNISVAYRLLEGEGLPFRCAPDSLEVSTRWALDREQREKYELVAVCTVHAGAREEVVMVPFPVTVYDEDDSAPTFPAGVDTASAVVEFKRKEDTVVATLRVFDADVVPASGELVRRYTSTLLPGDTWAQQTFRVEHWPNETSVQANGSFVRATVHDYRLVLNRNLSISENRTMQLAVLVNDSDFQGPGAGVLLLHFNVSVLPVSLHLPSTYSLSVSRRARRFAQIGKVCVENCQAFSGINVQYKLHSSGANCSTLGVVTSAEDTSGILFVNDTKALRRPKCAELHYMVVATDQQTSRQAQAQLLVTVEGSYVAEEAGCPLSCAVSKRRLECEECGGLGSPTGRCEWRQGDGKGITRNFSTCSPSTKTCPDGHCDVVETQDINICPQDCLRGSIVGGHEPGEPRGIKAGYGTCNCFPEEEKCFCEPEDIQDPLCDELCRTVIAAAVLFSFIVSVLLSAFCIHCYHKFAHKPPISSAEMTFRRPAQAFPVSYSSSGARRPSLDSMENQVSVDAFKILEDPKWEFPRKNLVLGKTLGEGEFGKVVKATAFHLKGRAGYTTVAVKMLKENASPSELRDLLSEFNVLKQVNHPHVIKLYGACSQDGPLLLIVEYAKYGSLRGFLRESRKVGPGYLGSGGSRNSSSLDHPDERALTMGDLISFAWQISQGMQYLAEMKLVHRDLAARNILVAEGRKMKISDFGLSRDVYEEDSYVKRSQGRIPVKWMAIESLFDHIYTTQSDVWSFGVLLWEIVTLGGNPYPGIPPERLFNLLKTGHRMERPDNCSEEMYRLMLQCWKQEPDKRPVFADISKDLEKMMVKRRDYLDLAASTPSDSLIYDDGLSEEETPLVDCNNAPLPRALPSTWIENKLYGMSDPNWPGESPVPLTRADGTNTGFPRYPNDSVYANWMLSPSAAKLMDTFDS
UniProt P07949, whole entry M918T, looked up: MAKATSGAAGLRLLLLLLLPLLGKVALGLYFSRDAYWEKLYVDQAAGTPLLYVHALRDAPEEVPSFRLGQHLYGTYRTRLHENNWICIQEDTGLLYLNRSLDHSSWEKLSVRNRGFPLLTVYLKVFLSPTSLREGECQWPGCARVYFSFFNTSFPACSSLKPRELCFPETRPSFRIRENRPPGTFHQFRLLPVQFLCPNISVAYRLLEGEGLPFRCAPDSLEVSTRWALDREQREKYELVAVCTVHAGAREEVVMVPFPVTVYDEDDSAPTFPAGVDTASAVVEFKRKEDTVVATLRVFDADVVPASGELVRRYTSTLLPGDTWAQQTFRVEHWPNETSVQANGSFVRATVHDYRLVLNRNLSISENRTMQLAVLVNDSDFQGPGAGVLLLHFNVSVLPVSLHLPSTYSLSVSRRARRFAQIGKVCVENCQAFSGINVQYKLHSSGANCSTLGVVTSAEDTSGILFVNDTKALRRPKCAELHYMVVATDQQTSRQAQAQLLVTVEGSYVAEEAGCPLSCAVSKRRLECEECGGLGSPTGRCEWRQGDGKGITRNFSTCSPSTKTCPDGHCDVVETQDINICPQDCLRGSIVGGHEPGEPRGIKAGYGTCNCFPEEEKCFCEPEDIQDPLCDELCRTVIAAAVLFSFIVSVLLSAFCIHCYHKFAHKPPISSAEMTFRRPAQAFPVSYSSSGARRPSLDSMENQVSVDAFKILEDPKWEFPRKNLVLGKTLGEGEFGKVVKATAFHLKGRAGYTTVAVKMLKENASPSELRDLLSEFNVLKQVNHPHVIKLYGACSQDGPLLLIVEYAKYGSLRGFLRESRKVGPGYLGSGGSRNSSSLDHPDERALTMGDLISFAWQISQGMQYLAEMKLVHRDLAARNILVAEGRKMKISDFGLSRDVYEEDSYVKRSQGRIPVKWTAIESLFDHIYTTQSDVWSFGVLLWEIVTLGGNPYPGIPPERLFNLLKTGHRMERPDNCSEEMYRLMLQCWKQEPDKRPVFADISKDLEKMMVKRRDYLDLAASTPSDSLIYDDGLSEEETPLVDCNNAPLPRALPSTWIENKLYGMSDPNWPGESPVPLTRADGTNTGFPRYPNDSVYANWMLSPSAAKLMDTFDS

Columns and labels:
Test in all cases: kinase-Nluc reporter destabilization hit call (1 = scored as downregulated) (binary); higher = compound decreases kinase abundance
Conditions in all cases: K562; 2-18 h
[1] = biological target: PDPK1 (UniProt O15530)
[2] = biological target: PIK4CA (UniProt P42356)
[3] = biological target: PIK4CB (UniProt Q9UBF8)
[4] = biological target: PLK1 (UniProt P53350)
[5] = biological target: PRKAA1 (UniProt Q13131)
[6] = biological target: PRKCA (UniProt P17252)
[7] = biological target: PTK2 (UniProt Q05397)
[8] = biological target: PTK2B (UniProt Q14289)
[9] = biological target: RAF1 (UniProt P04049)
[10] = biological target: RAF1_S257L (clone: RAF1_mut) (UniProt P04049)
[11] = biological target: RET (UniProt P07949)
[12] = biological target: RET_M918T (clone: RET_mut) (UniProt P07949)
[13] = biological target: RIOK1 (UniProt Q9BRS2)
[14] = biological target: RIPK1 (UniProt Q13546)
[15] = biological target: RIPK2 (UniProt O43353)
[16] = biological target: ROR2 (UniProt Q01974)
[17] = biological target: RPS6KA1 (UniProt Q15418)
[18] = biological target: SPHK1 (UniProt Q9NYA1)
[19] = biological target: SRC (UniProt P12931)
[20] = biological target: STK24 (UniProt Q9Y6E0)

Row | SMILES | kinase-Nluc reporter destabilization hit call [1] | kinase-Nluc reporter destabilization hit call [2] | kinase-Nluc reporter destabilization hit call [3] | kinase-Nluc reporter destabilization hit call [4] | kinase-Nluc reporter destabilization hit call [5] | kinase-Nluc reporter destabilization hit call [6] | kinase-Nluc reporter destabilization hit call [7] | kinase-Nluc reporter destabilization hit call [8] | kinase-Nluc reporter destabilization hit call [9] | kinase-Nluc reporter destabilization hit call [10] | kinase-Nluc reporter destabilization hit call [11] | kinase-Nluc reporter destabilization hit call [12] | kinase-Nluc reporter destabilization hit call [13] | kinase-Nluc reporter destabilization hit call [14] | kinase-Nluc reporter destabilization hit call [15] | kinase-Nluc reporter destabilization hit call [16] | kinase-Nluc reporter destabilization hit call [17] | kinase-Nluc reporter destabilization hit call [18] | kinase-Nluc reporter destabilization hit call [19] | kinase-Nluc reporter destabilization hit call [20]
1 | O=C1c2ccccc2-c2n[nH]c3cccc1c23 (10 µM) | inactive: 0 | inactive: 0 | inactive: 0 | inactive: 0 | inactive: 0 | inactive: 0 | inactive: 0 | inactive: 0 | inactive: 0 | inactive: 0 | inactive: 0 | inactive: 0 | inactive: 0 | inactive: 0 | inactive: 0 | inactive: 0 | inactive: 0 | inactive: 0 | inactive: 0 | inactive: 0
2 | COc1ccc2c(C(=O)Nc3ccc(NC(=O)c4nn(C5CCN(C(=O)CC(C)(C)C#N)CC5)c5ccc(F)cc45)cc3Cl)cnn2c1 [Src Inhibitor 3] (2.5 µM) | inactive: 0 | inactive: 0 | inactive: 0 | inactive: 0 | inactive: 0 | inactive: 0 | inactive: 0 | inactive: 0 | inactive: 0 | inactive: 0 | inactive: 0 | inactive: 0 | inactive: 0 | inactive: 0 | inactive: 0 | inactive: 0 | inactive: 0 | inactive: 0 | inactive: 0 | inactive: 0
3 | COc1cc2ncnc(Nc3ccc(O)cc3)c2cc1OC (10 µM) | inactive: 0 | inactive: 0 | inactive: 0 | inactive: 0 | inactive: 0 | inactive: 0 | inactive: 0 | inactive: 0 | inactive: 0 | inactive: 0 | inactive: 0 | inactive: 0 | inactive: 0 | inactive: 0 | inactive: 0 | inactive: 0 | inactive: 0 | inactive: 0 | inactive: 0 | inactive: 0
4 | O=C1Cc2c([nH]c3ccc(Br)cc23)-c2ncccc2N1 [1-Azakenpaullone] (10 µM) | inactive: 0 | inactive: 0 | inactive: 0 | inactive: 0 | inactive: 0 | inactive: 0 | inactive: 0 | inactive: 0 | inactive: 0 | inactive: 0 | inactive: 0 | inactive: 0 | inactive: 0 | inactive: 0 | inactive: 0 | inactive: 0 | inactive: 0 | inactive: 0 | inactive: 0 | inactive: 0
5 | COCc1c(-c2ccc(NC(=O)Nc3cc(C(F)(F)F)ccc3F)c(F)c2)c2c(N)ncnn2c1CN1CCOCC1 (2.5 µM) | inactive: 0 | inactive: 0 | inactive: 0 | inactive: 0 | inactive: 0 | inactive: 0 | inactive: 0 | inactive: 0 | inactive: 0 | inactive: 0 | inactive: 0 | inactive: 0 | inactive: 0 | inactive: 0 | inactive: 0 | inactive: 0 | inactive: 0 | inactive: 0 | inactive: 0 | inactive: 0
6 | Cc1nc(N)sc1-c1ccnc(Nc2ccc(N3CCOCC3)cc2)n1 (10 µM) | inactive: 0 | inactive: 0 | inactive: 0 | inactive: 0 | inactive: 0 | inactive: 0 | inactive: 0 | inactive: 0 | inactive: 0 | inactive: 0 | inactive: 0 | inactive: 0 | inactive: 0 | inactive: 0 | inactive: 0 | inactive: 0 | inactive: 0 | inactive: 0 | inactive: 0 | inactive: 0
7 | C/C=C(/C)C(=O)O[C@H]1Cc2cc3ccc(=O)oc3cc2OC1(C)C [Decursinol angelate] (10 µM) | inactive: 0 | inactive: 0 | inactive: 0 | inactive: 0 | inactive: 0 | inactive: 0 | inactive: 0 | inactive: 0 | inactive: 0 | inactive: 0 | inactive: 0 | inactive: 0 | inactive: 0 | inactive: 0 | inactive: 0 | inactive: 0 | inactive: 0 | inactive: 0 | inactive: 0 | inactive: 0
8 | CC(C)CC(=O)Nc1n[nH]c2c1CN(C(=O)C1CCN(C)CC1)C2(C)C (2.5 µM) | inactive: 0 | inactive: 0 | inactive: 0 | inactive: 0 | inactive: 0 | inactive: 0 | inactive: 0 | inactive: 0 | inactive: 0 | inactive: 0 | inactive: 0 | inactive: 0 | inactive: 0 | inactive: 0 | inactive: 0 | inactive: 0 | inactive: 0 | inactive: 0 | inactive: 0 | inactive: 0
9 | COc1cc(C=C(C#N)C(N)=O)cc(CSc2nc3ccccc3s2)c1O (10 µM) | inactive: 0 | inactive: 0 | inactive: 0 | inactive: 0 | inactive: 0 | inactive: 0 | inactive: 0 | inactive: 0 | inactive: 0 | inactive: 0 | inactive: 0 | inactive: 0 | inactive: 0 | inactive: 0 | inactive: 0 | inactive: 0 | inactive: 0 | inactive: 0 | inactive: 0 | inactive: 0
10 | C=CC(=O)N1CCN(CCCn2c(=O)c(-c3c(Cl)c(OC)cc(OC)c3Cl)cc3cnc(NC)nc32)CC1 (10 µM) | inactive: 0 | inactive: 0 | inactive: 0 | inactive: 0 | inactive: 0 | inactive: 0 | inactive: 0 | inactive: 0 | inactive: 0 | inactive: 0 | inactive: 0 | inactive: 0 | inactive: 0 | inactive: 0 | inactive: 0 | inactive: 0 | inactive: 0 | inactive: 0 | inactive: 0 | inactive: 0
11 | CC[C@H](CO)Nc1nc(NCc2ccccc2)c2ncn(C(C)C)c2n1 [Seliciclib] (10 µM) | inactive: 0 | inactive: 0 | inactive: 0 | inactive: 0 | inactive: 0 | inactive: 0 | inactive: 0 | inactive: 0 | inactive: 0 | inactive: 0 | inactive: 0 | inactive: 0 | inactive: 0 | inactive: 0 | inactive: 0 | inactive: 0 | inactive: 0 | inactive: 0 | inactive: 0 | inactive: 0
12 | NS(=O)(=O)c1ccc(Nc2nc(OCC3CCCCC3)c3[nH]cnc3n2)cc1 (10 µM) | inactive: 0 | inactive: 0 | inactive: 0 | inactive: 0 | inactive: 0 | inactive: 0 | inactive: 0 | inactive: 0 | inactive: 0 | inactive: 0 | inactive: 0 | inactive: 0 | inactive: 0 | inactive: 0 | inactive: 0 | inactive: 0 | inactive: 0 | inactive: 0 | inactive: 0 | inactive: 0
13 | COc1cc2c(Nc3ccc(NC(=O)c4ccccc4)cc3)ncnc2cc1OCCCN1CCOCC1 (10 µM) | inactive: 0 | inactive: 0 | inactive: 0 | inactive: 0 | inactive: 0 | inactive: 0 | inactive: 0 | inactive: 0 | inactive: 0 | inactive: 0 | inactive: 0 | inactive: 0 | inactive: 0 | inactive: 0 | inactive: 0 | inactive: 0 | inactive: 0 | inactive: 0 | inactive: 0 | inactive: 0
14 | CCCCC[C@H](O)CC(=O)CCc1ccc(O)c(OC)c1 [[6]-Gingerol] (10 µM) | inactive: 0 | inactive: 0 | inactive: 0 | inactive: 0 | inactive: 0 | inactive: 0 | inactive: 0 | inactive: 0 | inactive: 0 | inactive: 0 | inactive: 0 | inactive: 0 | inactive: 0 | inactive: 0 | inactive: 0 | inactive: 0 | inactive: 0 | inactive: 0 | inactive: 0 | inactive: 0
15 | COc1cc(CCc2cc(-c3nc4ccc(N5CCN(C)CC5)cc4[nH]3)n[nH]2)cc(OC)c1 (10 µM) | inactive: 0 | inactive: 0 | inactive: 0 | inactive: 0 | inactive: 0 | inactive: 0 | inactive: 0 | inactive: 0 | inactive: 0 | active: 1 | inactive: 0 | inactive: 0 | inactive: 0 | inactive: 0 | inactive: 0 | inactive: 0 | inactive: 0 | inactive: 0 | inactive: 0 | inactive: 0
16 | c1cc(OCCN2CCCCC2)cc(-c2n[nH]c3ccc(-c4nnc[nH]4)cc23)c1 [CC-401 (hydrochloride)] (10 µM) | inactive: 0 | inactive: 0 | inactive: 0 | inactive: 0 | inactive: 0 | inactive: 0 | inactive: 0 | inactive: 0 | inactive: 0 | inactive: 0 | inactive: 0 | inactive: 0 | inactive: 0 | inactive: 0 | inactive: 0 | inactive: 0 | inactive: 0 | inactive: 0 | inactive: 0 | inactive: 0
17 | CCCS(=O)(=O)Nc1ccc(F)c(C(=O)c2c[nH]c3ncc(Cl)cc23)c1F (10 µM) | inactive: 0 | inactive: 0 | inactive: 0 | inactive: 0 | inactive: 0 | inactive: 0 | inactive: 0 | inactive: 0 | inactive: 0 | inactive: 0 | inactive: 0 | inactive: 0 | inactive: 0 | inactive: 0 | inactive: 0 | inactive: 0 | inactive: 0 | inactive: 0 | inactive: 0 | inactive: 0
18 | Cc1c[nH]c2ccccc12 [Skatole] (10 µM) | inactive: 0 | inactive: 0 | inactive: 0 | inactive: 0 | inactive: 0 | inactive: 0 | inactive: 0 | inactive: 0 | inactive: 0 | inactive: 0 | inactive: 0 | inactive: 0 | inactive: 0 | inactive: 0 | inactive: 0 | inactive: 0 | inactive: 0 | inactive: 0 | inactive: 0 | inactive: 0

2 entries from above, as a markdown table:

| Row | SMILES | kinase-Nluc reporter destabilization hit call [1] | kinase-Nluc reporter destabilization hit call [2] | kinase-Nluc reporter destabilization hit call [3] | kinase-Nluc reporter destabilization hit call [4] | kinase-Nluc reporter destabilization hit call [5] | kinase-Nluc reporter destabilization hit call [6] | kinase-Nluc reporter destabilization hit call [7] | kinase-Nluc reporter destabilization hit call [8] | kinase-Nluc reporter destabilization hit call [9] | kinase-Nluc reporter destabilization hit call [10] | kinase-Nluc reporter destabilization hit call [11] | kinase-Nluc reporter destabilization hit call [12] | kinase-Nluc reporter destabilization hit call [13] | kinase-Nluc reporter destabilization hit call [14] | kinase-Nluc reporter destabilization hit call [15] | kinase-Nluc reporter destabilization hit call [16] | kinase-Nluc reporter destabilization hit call [17] | kinase-Nluc reporter destabilization hit call [18] | kinase-Nluc reporter destabilization hit call [19] | kinase-Nluc reporter destabilization hit call [20] |
| --- | --- | --- | --- | --- | --- | --- | --- | --- | --- | --- | --- | --- | --- | --- | --- | --- | --- | --- | --- | --- | --- |
| 14 | CCCCC[C@H](O)CC(=O)CCc1ccc(O)c(OC)c1 [[6]-Gingerol] (10 µM) | inactive: 0 | inactive: 0 | inactive: 0 | inactive: 0 | inactive: 0 | inactive: 0 | inactive: 0 | inactive: 0 | inactive: 0 | inactive: 0 | inactive: 0 | inactive: 0 | inactive: 0 | inactive: 0 | inactive: 0 | inactive: 0 | inactive: 0 | inactive: 0 | inactive: 0 | inactive: 0 |
| 15 | COc1cc(CCc2cc(-c3nc4ccc(N5CCN(C)CC5)cc4[nH]3)n[nH]2)cc(OC)c1 (10 µM) | inactive: 0 | inactive: 0 | inactive: 0 | inactive: 0 | inactive: 0 | inactive: 0 | inactive: 0 | inactive: 0 | inactive: 0 | active: 1 | inactive: 0 | inactive: 0 | inactive: 0 | inactive: 0 | inactive: 0 | inactive: 0 | inactive: 0 | inactive: 0 | inactive: 0 | inactive: 0 |
